These are yes or no findings as the source states them, for the method shown. In cells and extracts the contact can be indirect. Here binding means that the protein was enriched with, or labelled near, the bait; the list need not be complete. Tags and fused reporters may be left off the sequences shown.
T1: PSMA4-GFP (20S proteasomal subunit PSMA4 with GFP fused C-terminally) (D. discoideum) (UniProt P34119)
T1 sequence: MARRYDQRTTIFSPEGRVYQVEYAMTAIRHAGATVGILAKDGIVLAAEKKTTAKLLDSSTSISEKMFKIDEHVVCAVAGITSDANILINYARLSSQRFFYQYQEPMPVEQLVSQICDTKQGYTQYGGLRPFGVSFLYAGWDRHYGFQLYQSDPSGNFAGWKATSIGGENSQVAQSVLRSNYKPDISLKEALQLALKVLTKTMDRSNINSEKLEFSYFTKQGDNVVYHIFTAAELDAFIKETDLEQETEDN


Biological target: T1, PSMA4-GFP (20S proteasomal subunit PSMA4 with GFP fused C-terminally) (D. discoideum)
Test: affinity purification with mass spectrometry; GFP-trap beads, 2 h at 4 °C, with the soluble supernatant of lysates of AX2 and ATG16- cells expressing RFP-PSMD1 and PSMA4-GFP; cells without PSMA4-GFP as negative controls; three biological replicates; label-free quantification; GlyGly (K) and ubiquitination as variable modifications

Row | binding | Binder
1 | binds | Uncharacterized protein Q54WT5 (DDB_G0279449), ubiquitinated at K115 (protein, UniProt Q54WT5 1-1100, ubiquitinated lysine at 115) MTKGGKKPTAHKKVVSTFTIQEPEEFKDNTRELKAEAERVRQEGFRKIKEEKLQKEQALIREKQEAEAKKKLEEQEKLEQEQKKKQQEEEDKKRKQQEEEDKIKQQQLKKEEKEKEKAAAANPKSSKLDNKKEVEESKVVEISTQPTTTTTTTTNQVNNNSNNNNNNDISSPSTQLKKQNGKKVVKRKHSTQLSGFEISEPSSFDDEQFKIDNEDVIRLRTKFIKVTKPKKNKKNASKSGSPAIISSNTTSESVTPQNFAQENSPPTTTPATTQTQVTEKPKQQEEEKEEGEKEEPKPVVPEIKKIGIKSSPKAEQKPHYTIPKKNKQQQQPPKPTTNEAKPAGETKKSTGKKSPKQSITKNKSATFTIIEPSFGIQAPSSNTTTATPVEDSSSKTVDSTTTTTTTTSTATKTPAKPTPTQSKKKQNKKKPSTTNKSDDDIEGLLKQINDPKQRKVKQPTTTATPVVSKEDEAKKQKAAQESAEKKKLTDQNKKEAQEQEKLRVAEAKKVADAKKAADAEESKKAADAKKAADAEAKKAAEAKKAADAEAKKAADAKKAAADEEEAKKAADAKKAADAKKAADEEEAKKAADAKKVADAEAKKAADAKKAADEEEAKKAADAKKAAEEEEAKKAADIKKAAEDAKKAEDAKKAEDAKKAEEDRLEAEAEKKRLAEEQAKKEADAKKAEEDRLAAEAEKKRLEGEQAKRAEEDRLAAEAEKKRLADEAEKKRLADEAEKKEAEGKKAEEDRLAAEAEKKRLADEEAEKKAAESKKLAEEEEKKAVEAKRLADEEEEKRAAESKKLADEEQAKKAAQEEEEKKKLEEEEEKKKAASEQAEQKQVAEDSDKKKADEAEIRPLSHPTLSRPSKKSSSSLKLNRVETESEVEASKSEETKEEEKPEPEEEKPKVEYKPDFKPVGGIDIFGGAKINPAEVVLKKTTSSSNIIEHTPAPAPEEQGTFNFRSVLKNSKSSEKLSEFANGGSTTSSTTTTPSTGTPVKPTLSKSPSVVNNKSTTSIPIPTSSPVISPAAVTSMPSEAVGTYTYDELKNFKTNGINVDPSKLEIYLSDEEFTKVLGMSRTEYIKLPAWKQKNKKQDAKLF
2 | binds | Uncharacterized protein Q54GX0 (DDB_G0289871), ubiquitinated at K2 (protein, UniProt Q54GX0 1-332, ubiquitinated lysine at 2) MKFFSFLSIGRATNVQSVMNTLTNENNKSFDLKSIDSFSLVDLSNQFISIKERIKFSKKELGDLLLFNKNVDGIIVAKNISLEKFDNIRNMFDDIPKVMLINGFVIITDLSVSKIHAFGLSYFLVQVGAYSLTSNYSLVGLNELSIAIPGNGFVQPDSCLLPKGRAQPNVDIPTVAFEMYYSKGVSYAVARARILFRISGIQYVLCICIRPRDPNNNNTFKCTALVFNGVISRENPVSIISFGTKPISQINENQYQTITVGVPAVGYKRTNPVQCNAPNLPMFLISIPSTIIFNGVPNPPANIPPALNLDLFILQSSFLEYVEDFTGNLHHQ

From publication PMC10252828
